Source: article PMC12378234, “Enzyme-mediated aminoglycoside resistance without target mimicry” (Communications Chemistry, 2025)
Several values for one entry are separate records, joined by “and”; a condition that tells them apart may be missing. Equal values may be shown once. Read-outs that look alike come from different tables or passages of the source. Further values from the same series stand in other lists.

System: BL21(DE3) E. coli transformed with pUCP18 vector expressing untagged AAC(3)-IIIa
Format: cell-based
Experimental: Ten milliliters of LB containing […] ampicillin were inoculated from glycerol stocks of transformed BL21(DE3) E. coli containing genes expressing the proteins of interest in pUCP18 vectors. These cultures were incubated at 37 °C with 200 rpm agitation for 16 h. Turbidity was measured through OD600 with a NanoDrop OneC Spectrometer (Thermo Scientific). From the initial cultures, secondary 10 mL cultures were prepared with OD600 values of 0.1. These cultures were grown until OD600 values of 0.4–0.6 were reached and diluted to bring all cultures to the same OD600. Cultures were induced with 1 mM Isopropyl β-D-1-thiogalactopyranoside and incubated for 4 h. Two microliters of culture was added to 198 μL of LB with an appropriate aminoglycoside titration concentration. Each titration point was repeated n = 4 times. The formulated 96-well culture plate (Sarstedt) had OD600 measured on a 20-min interval over 17 h using a BioTek Cytation 5 Cell Imaging Multimode Reader, incubating at 37 °C with 282 cpm orbital agitation. Experiments were repeated with fresh cultures on separate days to ensure consistent trends. Data was analyzed in Microsoft Excel and GraphPad5. The remainder of the culture immediately had its RNA isolated for qPCR experiments.

Question: Which results are given for `CN[C@@H]1[C@@H](O)[C@@H](O[C@@H]2[C@@H](O)[C@H](O[C@H]3OC(CN)=CC[C@H]3N)[C@@H](N)C[C@H]2N)OC[C@]1(C)O` [Sisomicin, sisomicin]?
Answer: OD600 growth curve (6 ug/mL Sisomicin, time point 08:59:10): 0.305 and 0.327 and 0.299 and 0.242; OD600 growth curve (6 ug/mL Sisomicin, time point 09:19:10): 0.313 and 0.337 and 0.307 and 0.261; OD600 growth curve (6 ug/mL Sisomicin, time point 09:39:10): 0.317 and 0.343 and 0.313 and 0.278; OD600 growth curve (6 ug/mL Sisomicin, time point 09:59:10): 0.323 and 0.349 and 0.322 and 0.299; OD600 growth curve (6 ug/mL Sisomicin, time point 10:19:10): 0.329 and 0.356 and 0.328 and 0.314; OD600 growth curve (6 ug/mL Sisomicin, time point 10:39:10): 0.333 and 0.359 and 0.325; OD600 growth curve (6 ug/mL Sisomicin, time point 10:59:10): 0.337 and 0.363 and 0.336 and 0.335; OD600 growth curve (6 ug/mL Sisomicin, time point 11:19:10): 0.341 and 0.367 and 0.34 and 0.342; OD600 growth curve (6 ug/mL Sisomicin, time point 11:39:10): 0.344 and 0.37 and 0.354; OD600 growth curve (6 ug/mL Sisomicin, time point 11:59:10): 0.345 and 0.372 and 0.346 and 0.363; OD600 growth curve (6 ug/mL Sisomicin, time point 12:19:10): 0.348 and 0.373 and 0.349 and 0.371; OD600 growth curve (6 ug/mL Sisomicin, time point 12:39:10): 0.349 and 0.376 and 0.35 and 0.381; OD600 growth curve (6 ug/mL Sisomicin, time point 12:59:10): 0.351 and 0.378 and 0.352 and 0.389; OD600 growth curve (6 ug/mL Sisomicin, time point 13:19:10): 0.351 and 0.377 and 0.354 and 0.399; OD600 growth curve (6 ug/mL Sisomicin, time point 13:39:10): 0.352 and 0.376 and 0.356 and 0.407; OD600 growth curve (6 ug/mL Sisomicin, time point 13:59:10): 0.353 and 0.38 and 0.358 and 0.42; OD600 growth curve (6 ug/mL Sisomicin, time point 14:19:10): 0.353 and 0.378 and 0.358 and 0.426; OD600 growth curve (6 ug/mL Sisomicin, time point 14:39:10): 0.354 and 0.379 and 0.358 and 0.437; OD600 growth curve (6 ug/mL Sisomicin, time point 14:59:10): 0.354 and 0.379 and 0.363 and 0.451; OD600 growth curve (6 ug/mL Sisomicin, time point 15:19:10): 0.355 and 0.381 and 0.363 and 0.463; OD600 growth curve (6 ug/mL Sisomicin, time point 15:39:10): 0.356 and 0.381 and 0.365 and 0.473; OD600 growth curve (6 ug/mL Sisomicin, time point 15:59:10): 0.356 and 0.381 and 0.367 and 0.486; OD600 growth curve (6 ug/mL Sisomicin, time point 16:19:10): 0.357 and 0.379 and 0.368 and 0.495; OD600 growth curve (6 ug/mL Sisomicin, time point 16:39:10): 0.358 and 0.379 and 0.37 and 0.506; OD600 growth curve (6 ug/mL Sisomicin, time point 16:59:10): 0.358 and 0.378 and 0.371 and 0.514; OD600 growth curve (6 ug/mL Sisomicin, time point 17:19:10): 0.36 and 0.377 and 0.373 and 0.522; OD600 growth curve (12 ug/mL Sisomicin, time point 00:19:10): 0.103 and 0.098 and 0.099; OD600 growth curve (12 ug/mL Sisomicin, time point 00:39:10): 0.103 and 0.098 and 0.1; OD600 growth curve (12 ug/mL Sisomicin, time point 00:59:10): 0.106 and 0.099 and 0.101; OD600 growth curve (12 ug/mL Sisomicin, time point 01:19:10): 0.105 and 0.099 and 0.102; OD600 growth curve (12 ug/mL Sisomicin, time point 01:39:10): 0.106 and 0.099 and 0.103; OD600 growth curve (12 ug/mL Sisomicin, time point 01:59:10): 0.106 and 0.099 and 0.103; OD600 growth curve (12 ug/mL Sisomicin, time point 02:19:10): 0.106 and 0.1 and 0.099 and 0.104; OD600 growth curve (12 ug/mL Sisomicin, time point 02:39:10): 0.105 and 0.1 and 0.099 and 0.104; OD600 growth curve (12 ug/mL Sisomicin, time point 02:59:10): 0.105 and 0.1 and 0.099; OD600 growth curve (12 ug/mL Sisomicin, time point 03:19:10): 0.105 and 0.1 and 0.099; OD600 growth curve (12 ug/mL Sisomicin, time point 03:39:10): 0.106 and 0.1 and 0.099; OD600 growth curve (12 ug/mL Sisomicin, time point 03:59:10): 0.106 and 0.1 and 0.099; OD600 growth curve (12 ug/mL Sisomicin, time point 04:19:10): 0.106 and 0.101 and 0.099 and 0.107; OD600 growth curve (12 ug/mL Sisomicin, time point 04:39:10): 0.106 and 0.101 and 0.099 and 0.108; OD600 growth curve (12 ug/mL Sisomicin, time point 04:59:10): 0.107 and 0.102 and 0.1 and 0.109; OD600 growth curve (12 ug/mL Sisomicin, time point 05:19:10): 0.107 and 0.102 and 0.1 and 0.111; OD600 growth curve (12 ug/mL Sisomicin, time point 05:39:10): 0.108 and 0.103 and 0.1 and 0.111; OD600 growth curve (12 ug/mL Sisomicin, time point 05:59:10): 0.108 and 0.104 and 0.1 and 0.112; OD600 growth curve (12 ug/mL Sisomicin, time point 06:19:10): 0.109 and 0.104 and 0.101 and 0.114; OD600 growth curve (12 ug/mL Sisomicin, time point 06:39:10): 0.11 and 0.106 and 0.101 and 0.114; OD600 growth curve (12 ug/mL Sisomicin, time point 06:59:10): 0.11 and 0.106 and 0.101 and 0.114; OD600 growth curve (12 ug/mL Sisomicin, time point 07:19:10): 0.111 and 0.107 and 0.101 and 0.114; OD600 growth curve (12 ug/mL Sisomicin, time point 07:39:10): 0.111 and 0.108 and 0.101 and 0.114; OD600 growth curve (12 ug/mL Sisomicin, time point 07:59:10): 0.111 and 0.108 and 0.101 and 0.113; OD600 growth curve (12 ug/mL Sisomicin, time point 08:19:10): 0.11 and 0.109 and 0.101 and 0.111; OD600 growth curve (12 ug/mL Sisomicin, time point 08:39:10): 0.111 and 0.109 and 0.101; OD600 growth curve (12 ug/mL Sisomicin, time point 08:59:10): 0.11 and 0.109 and 0.101 and 0.108; OD600 growth curve (12 ug/mL Sisomicin, time point 09:19:10): 0.11 and 0.101 and 0.106; OD600 growth curve (12 ug/mL Sisomicin, time point 09:39:10): 0.11 and 0.109 and 0.101 and 0.105; OD600 growth curve (12 ug/mL Sisomicin, time point 09:59:10): 0.109 and 0.11 and 0.1 and 0.104; OD600 growth curve (12 ug/mL Sisomicin, time point 10:19:10): 0.109 and 0.11 and 0.1 and 0.103; OD600 growth curve (12 ug/mL Sisomicin, time point 10:39:10): 0.108 and 0.11 and 0.1 and 0.103; OD600 growth curve (12 ug/mL Sisomicin, time point 10:59:10): 0.107 and 0.109 and 0.1 and 0.102; OD600 growth curve (12 ug/mL Sisomicin, time point 11:19:10): 0.107 and 0.108 and 0.099 and 0.102; OD600 growth curve (12 ug/mL Sisomicin, time point 11:39:10): 0.106 and 0.108 and 0.099 and 0.102; OD600 growth curve (12 ug/mL Sisomicin, time point 11:59:10): 0.105 and 0.107 and 0.099 and 0.101; OD600 growth curve (12 ug/mL Sisomicin, time point 12:19:10): 0.105 and 0.107 and 0.098 and 0.101; OD600 growth curve (12 ug/mL Sisomicin, time point 12:39:10): 0.105 and 0.106 and 0.098 and 0.101; OD600 growth curve (12 ug/mL Sisomicin, time point 12:59:10): 0.104 and 0.105 and 0.098 and 0.101; OD600 growth curve (12 ug/mL Sisomicin, time point 13:19:10): 0.104 and 0.098 and 0.101; OD600 growth curve (12 ug/mL Sisomicin, time point 13:39:10): 0.103 and 0.098 and 0.101; OD600 growth curve (12 ug/mL Sisomicin, time point 13:59:10): 0.103 and 0.098 and 0.101; OD600 growth curve (12 ug/mL Sisomicin, time point 14:19:10): 0.103 and 0.102 and 0.097 and 0.1; OD600 growth curve (12 ug/mL Sisomicin, time point 14:39:10): 0.102 and 0.097 and 0.1; OD600 growth curve (12 ug/mL Sisomicin, time point 14:59:10): 0.102 and 0.101 and 0.097 and 0.1; OD600 growth curve (12 ug/mL Sisomicin, time point 15:19:10): 0.102 and 0.1 and 0.097; OD600 growth curve (12 ug/mL Sisomicin, time point 15:39:10): 0.102 and 0.1 and 0.097; OD600 growth curve (12 ug/mL Sisomicin, time point 15:59:10): 0.102 and 0.1 and 0.097; OD600 growth curve (12 ug/mL Sisomicin, time point 16:19:10): 0.101 and 0.099 and 0.097; OD600 growth curve (12 ug/mL Sisomicin, time point 16:39:10): 0.101 and 0.099 and 0.097; OD600 growth curve (12 ug/mL Sisomicin, time point 16:59:10): 0.101 and 0.099 and 0.097; OD600 growth curve (12 ug/mL Sisomicin, time point 17:19:10): 0.101 and 0.099 and 0.097
